Numbering of substitutions follows the chain as printed. In names and notes the source's numbering stands. Results are given in words; binding and its absence hold for the method and conditions named. For some of these results: In cells and extracts the contact can be indirect. Some results given as binding are weak or reduced against the parent protein; the word gives no strength. For some of these results: Sequences can lack the tags named with a protein. Values belong to the binder of their own block, whether it stands above or below them.
Tests used:
[1] = target: T1, CLAMP^40–153 (Drosophila melanogaster, UniProt Q9V9N4 40-153); experiment: NMR relaxation; CLAMP 40–153 alone, in vitro; both purified
T1 construct: Tags and their cleavage are told only in the Supplementary Information; source: E. coli BL21 (DE3), purified (IMAC, anion-exchange chromatography)
T1 sequence (looked up): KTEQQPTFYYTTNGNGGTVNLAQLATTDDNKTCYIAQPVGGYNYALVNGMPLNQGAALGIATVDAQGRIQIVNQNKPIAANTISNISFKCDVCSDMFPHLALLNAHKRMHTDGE

[2] = target: T1, CLAMP^40–153; experiment: NMR titration; 15N-labeled CLAMP 40–153 titrated with an excess of unlabeled MSL2 618–655; chemical shift perturbation; 25°C; both purified
[3] = target: T2, MSL2^618–655 (Drosophila melanogaster) (UniProt P50534); experiment: NMR titration; stable isotope-labeled MSL2 618–655 titrated with unlabeled CLAMP 40–153 (or CLAMP 41–153 L139A/K146E); chemical shift perturbation, fast exchange; 25°C; both purified
T2 sequence: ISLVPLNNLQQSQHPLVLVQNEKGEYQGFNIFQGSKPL

[4] = target: T3, GST-tagged MSL2^618–655 (Drosophila melanogaster) (UniProt P50534); experiment: pull-down; GST-pulldown: GST-tagged MSL2 618–655 and 6xHis-thioredoxin-tagged CLAMP 1–153; performed as described in ref. 12
T3 sequence: T2 sequence

[5] = target: T4, full-length MSL2 (GAL4 fusion, yeast two-hybrid) (Drosophila melanogaster) (UniProt P50534); experiment: two-hybrid; GAL4 DNA-binding and activation domain fusions (pGBT9, pGAD424) in yeast strain pJ69-4A; growth on media without tryptophan, leucine, histidine and adenine, 30°C
T4 sequence: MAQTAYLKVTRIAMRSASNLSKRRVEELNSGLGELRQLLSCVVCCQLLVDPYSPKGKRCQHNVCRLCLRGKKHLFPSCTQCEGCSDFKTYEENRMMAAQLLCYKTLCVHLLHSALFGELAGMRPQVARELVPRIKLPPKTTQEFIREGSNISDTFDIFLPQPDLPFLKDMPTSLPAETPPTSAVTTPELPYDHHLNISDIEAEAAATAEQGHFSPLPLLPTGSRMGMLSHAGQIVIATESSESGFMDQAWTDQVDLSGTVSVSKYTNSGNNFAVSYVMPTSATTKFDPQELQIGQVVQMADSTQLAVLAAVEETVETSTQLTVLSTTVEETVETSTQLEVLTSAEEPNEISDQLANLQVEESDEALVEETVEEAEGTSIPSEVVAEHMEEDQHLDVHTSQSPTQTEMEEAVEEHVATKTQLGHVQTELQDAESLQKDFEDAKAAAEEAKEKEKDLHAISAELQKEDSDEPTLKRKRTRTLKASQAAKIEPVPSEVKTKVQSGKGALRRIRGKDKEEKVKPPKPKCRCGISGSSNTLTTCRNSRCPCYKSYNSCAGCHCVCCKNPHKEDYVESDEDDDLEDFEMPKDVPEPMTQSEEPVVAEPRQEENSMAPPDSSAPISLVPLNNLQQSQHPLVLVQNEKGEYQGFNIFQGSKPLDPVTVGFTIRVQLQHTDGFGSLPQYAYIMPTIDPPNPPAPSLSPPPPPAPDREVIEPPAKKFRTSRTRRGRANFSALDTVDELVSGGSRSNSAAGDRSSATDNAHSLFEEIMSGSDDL

[6] = target: T5, GST-tagged MSL2^618–655 Y643A (Drosophila melanogaster) (UniProt P50534); experiment: pull-down; GST-pulldown: GST-tagged MSL2 618–655 and 6xHis-thioredoxin-tagged CLAMP 1–153; performed as described in ref. 12
T5 sequence: T2 sequence with Y26A

[7] = target: T6, GST-tagged MSL2^618–655 H631A (Drosophila melanogaster) (UniProt P50534); experiment: as above
T6 sequence: T2 sequence with H14A

[8] = target: T7, GST-tagged MSL2^618–655 L633A;V634A;E639A;Y643A (Drosophila melanogaster) (UniProt P50534); experiment: as above
T7 sequence: T2 sequence with L16A, V17A, E22A, Y26A

[9] = target: T8, GST-tagged MSL2^618–655 E639A (Drosophila melanogaster) (UniProt P50534); experiment: as above
T8 sequence: T2 sequence with E22A

[10] = target: T9, full-length CLAMP (GAL4 fusion, yeast two-hybrid) (Drosophila melanogaster) (UniProt Q9V9N4); experiment: two-hybrid; GAL4 DNA-binding and activation domain fusions (pGBT9, pGAD424) in yeast strain pJ69-4A; growth on media without tryptophan, leucine, histidine and adenine, 30°C
T9 sequence: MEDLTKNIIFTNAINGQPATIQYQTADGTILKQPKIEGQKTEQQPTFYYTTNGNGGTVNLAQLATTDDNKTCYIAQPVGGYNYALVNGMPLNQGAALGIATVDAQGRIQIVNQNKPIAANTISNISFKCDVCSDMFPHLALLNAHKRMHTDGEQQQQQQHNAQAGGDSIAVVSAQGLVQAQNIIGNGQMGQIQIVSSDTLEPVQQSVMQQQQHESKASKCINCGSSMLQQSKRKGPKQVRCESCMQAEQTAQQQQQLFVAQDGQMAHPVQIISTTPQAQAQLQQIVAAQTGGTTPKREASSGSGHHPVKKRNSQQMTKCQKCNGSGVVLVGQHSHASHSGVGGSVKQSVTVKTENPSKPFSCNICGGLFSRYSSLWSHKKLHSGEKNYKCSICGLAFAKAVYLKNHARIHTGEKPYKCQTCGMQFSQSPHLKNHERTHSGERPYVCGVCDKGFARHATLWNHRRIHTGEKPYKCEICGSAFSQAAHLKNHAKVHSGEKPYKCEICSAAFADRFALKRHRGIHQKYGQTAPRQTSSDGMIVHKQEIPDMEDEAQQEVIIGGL

B4: 6xHis-thioredoxin-tagged CLAMP^1–153 K146E (domain or fragment, UniProt Q9V9N4 1-153)
chain: MEDLTKNIIFTNAINGQPATIQYQTADGTILKQPKIEGQKTEQQPTFYYTTNGNGGTVNLAQLATTDDNKTCYIAQPVGGYNYALVNGMPLNQGAALGIATVDAQGRIQIVNQNKPIAANTISNISFKCDVCSDMFPHLALLNAHERMHTDGE
binding [4]: binds

B7: CLAMP^1–153 H138A (GAL4 fusion, yeast two-hybrid) (domain or fragment, UniProt Q9V9N4 1-153)
chain: B4 chain with H138A, E146K
binding [5]: binds

B8: 6xHis-thioredoxin-tagged CLAMP^1–153 H138A (domain or fragment, UniProt Q9V9N4 1-153)
chain: B4 chain with H138A, E146K
binding [4]: binds

B10: 6xHis-thioredoxin-tagged CLAMP^1–153 I122A (domain or fragment, UniProt Q9V9N4 1-153)
chain: B4 chain with I122A, E146K
binding [4]: binds

B11: 6xHis-thioredoxin-tagged CLAMP^1–153 N143A (domain or fragment, UniProt Q9V9N4 1-153)
chain: B4 chain with N143A, E146K
binding [4]: binds

B12: 6xHis-thioredoxin-tagged CLAMP^1–153 (domain or fragment, UniProt Q9V9N4 1-153)
chain: B4 chain with E146K
binding [6]: binds
binding [7]: binds
binding [8]: binds weakly
binding [9]: binds
binding [4]: binds

B13: 6xHis-thioredoxin-tagged CLAMP^1–153 R147E (domain or fragment, UniProt Q9V9N4 1-153)
chain: B4 chain with E146K, R147E
binding [4]: binds

B15: CLAMP^1–153 (GAL4 fusion, yeast two-hybrid) (domain or fragment, UniProt Q9V9N4 1-153)
chain: B4 chain with E146K
binding [5]: binds
binding [10]: binds

B16: 6xHis-thioredoxin-tagged CLAMP^1–153 L139A (domain or fragment, UniProt Q9V9N4 1-153)
chain: B4 chain with L139A, E146K
binding [4]: binds

B17: 6xHis-thioredoxin-tagged CLAMP^1–153 L141A (domain or fragment, UniProt Q9V9N4 1-153)
chain: B4 chain with L141A, E146K
binding [4]: binds

Continued, values first:

binding [1]: no binding
B1: CLAMP^40–153 (domain or fragment, UniProt Q9V9N4 40-153)
chain: T1 sequence (looked up)

binding [2]: binds weakly
B2: MSL2^618–655 (domain or fragment, Drosophila melanogaster, UniProt P50534 618-655, looked up)
chain: T2 sequence
notes: Unlabelled or 13C,15N-labelled for NMR; Tags and their cleavage are told only in the Supplementary Information; also called MSL2 peptide; source: E. coli BL21 (DE3), purified (IMAC, anion-exchange chromatography)

binding [3]: no binding
B3: CLAMP^41–153 L139A/K146E (domain or fragment, UniProt Q9V9N4 41-153)
chain: TEQQPTFYYTTNGNGGTVNLAQLATTDDNKTCYIAQPVGGYNYALVNGMPLNQGAALGIATVDAQGRIQIVNQNKPIAANTISNISFKCDVCSDMFPHAALLNAHERMHTDGE

binding [5]: binds
B5: CLAMP^1–153 L141A (GAL4 fusion, yeast two-hybrid) (domain or fragment, UniProt Q9V9N4 1-153)
chain: B4 chain with L141A, E146K

binding [5]: binds
B6: CLAMP^1–153 I122A (GAL4 fusion, yeast two-hybrid) (domain or fragment, UniProt Q9V9N4 1-153)
chain: B4 chain with I122A, E146K

binding [5]: binds
B9: CLAMP^1–153 R147E (GAL4 fusion, yeast two-hybrid) (domain or fragment, UniProt Q9V9N4 1-153)
chain: B4 chain with E146K, R147E

binding [5]: binds
B14: CLAMP^1–153 N143A (GAL4 fusion, yeast two-hybrid) (domain or fragment, UniProt Q9V9N4 1-153)
chain: B4 chain with N143A, E146K
